Measured values: US12208080B2, “Compositions and methods for modulation of extracellular vesicle release and treatment of neurological disorders” (GEORGE MASON RESEARCH FOUNDATION, INC., priority 2018, dated 2025)
At least one structure is not confirmed: it was looked up by name or label, or the drawing left a doubt.

System: autophagy proteins (p62, LC3, ATG12-ATG5, ATG12, Beclin-1) in U1 cells
Test: Autophagy protein profile, CBD versus autophagy drugs, in U1 cells and their EVs (Western blot)
Type: cell-based
Details: 5 days, Bafilomycin A1 50 nM, SB 203580 20 μM, Wortmannin 2 nM
Protocol: FIGS. 18A-18B are gels showing CBD promotes autophagy turnover, resulting in a decrease in extracellular autophagosomal secretion. A) U1 cells (1×10^6) were treated±CBD (10 μM) for the following incubation periods: 0, 6, 24, and 48 hours. Cells were pelleted and lysed, exosomes from supernatants were enriched with NT80/82 beads overnight at 4° C. Samples were run through SDS-PAGE and western blotted for autophagy proteins (p62 and LC3), and Actin. B) U1 cells (1×10^6) were treated±10 μM CBD (every day), Rapamycin (50 nM), INK128 (50 nM), Bafilomycin A1 (50 nM), SB 203580 (20 μM), Wortmannin (2 nM) for a 5-day incubation period. Cells were pelleted and lysed, exosomes from supernatants were enriched using NT80/82 beads overnight at 4° C. Samples were run through SDS-PAGE and western blotted for autophagy proteins (p62, LC3, ATG12-ATG5, ATG12, Beclin-1), and Actin.
FIGS. 21A-21K are graphs showing normalized densitometry analysis of CBD and autophagy drug treatment on HIV-1 infected monocytes. Intracellular (A) p62, (B) LC3 I, (C) LC3 II, (D) ATG12-ATG5 complex, (E) ATG12, and (F) Beclin-1, and extracellular (G) p62, (H) LC3 I, (I) LC3 II, (J) ATG12-ATG5 complex, and (K) Beclin-1 densitometry counts were calculated from the Western blot data in FIG. 5B, normalized to respective intracellular and extracellular Actin levels, and plotted.
To determine the specific points at which CBD inhibits intracellular and extracellular autophagosome formation and secretion, we compared CBD treatment of U1 monocytes with known inhibitors of different points in the autophagy pathway. Cell viability was assessed among a panel of titrated autophagy drugs and the least toxic concentration per drug was utilized (FIG. 20). We treated U1 cells with CBD (10 μM) every day, Rapamycin (50 nM), INK128 (50 nM), Bafilomycin A1 (50 nM), SB 203580 (20 μM), or Wortmannin (2 nM) for 5 days. […] The corresponding supernatants were enriched for EVs and also analyzed for the presence of autophagy proteins.

[1] = CBD 10 μM, Rapamycin 50 nM, INK128 50 nM, lower panel

COC[C@H]1OC(=O)c2coc3c2[C@@]1(C)C1=C(C3=O)[C@@H]2CCC(=O)[C@@]2(C)C[C@H]1OC(C)=O [Wortmannin]
EV-associated LC3 II (vs untreated infected control): elevated levels | EV-associated LC3 I [1]: elevated levels | EV-associated p62 [1]: sustained levels
